According to paper PMC10657456:
No constants are given. Whether binding was seen depends on the method and setting. In cells and extracts the contact can be indirect. Some entries that bind do so weakly or less than the wild type.

Legend:
[1] = target: T1, Topoisomerase 3β (TOP3B), endogenous (human (endogenous in HEK293 and HCT116)) (UniProt O95985); assay: condition: only free TOP3B (no nuclease/benzonase in IP buffer); co-IP; TOP3B pulled down from HEK293 cells with no nuclease/benzonase in IP buffer (free TOP3B), Western blot
T1 sequence: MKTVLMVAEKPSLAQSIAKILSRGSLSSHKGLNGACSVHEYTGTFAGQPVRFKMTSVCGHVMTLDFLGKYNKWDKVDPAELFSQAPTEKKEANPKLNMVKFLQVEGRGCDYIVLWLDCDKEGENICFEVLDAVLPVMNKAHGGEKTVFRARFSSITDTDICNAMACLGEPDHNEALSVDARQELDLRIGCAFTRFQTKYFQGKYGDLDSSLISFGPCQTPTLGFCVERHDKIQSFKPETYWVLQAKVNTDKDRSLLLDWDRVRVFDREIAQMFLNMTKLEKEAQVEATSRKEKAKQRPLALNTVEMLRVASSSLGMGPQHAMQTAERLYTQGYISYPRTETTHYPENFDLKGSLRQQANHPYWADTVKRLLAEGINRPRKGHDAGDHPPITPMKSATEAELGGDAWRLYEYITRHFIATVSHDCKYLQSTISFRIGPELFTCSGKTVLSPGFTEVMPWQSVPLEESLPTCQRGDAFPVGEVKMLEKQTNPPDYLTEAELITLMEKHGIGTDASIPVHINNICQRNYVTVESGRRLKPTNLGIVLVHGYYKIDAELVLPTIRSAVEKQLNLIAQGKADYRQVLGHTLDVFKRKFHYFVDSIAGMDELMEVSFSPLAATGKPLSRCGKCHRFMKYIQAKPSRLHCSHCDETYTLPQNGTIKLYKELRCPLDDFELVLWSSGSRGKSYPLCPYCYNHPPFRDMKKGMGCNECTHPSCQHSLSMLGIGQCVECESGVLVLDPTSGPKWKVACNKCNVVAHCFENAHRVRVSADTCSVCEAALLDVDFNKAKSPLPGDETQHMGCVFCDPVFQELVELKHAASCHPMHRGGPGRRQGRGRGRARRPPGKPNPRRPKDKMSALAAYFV

[2] = target: T1, Topoisomerase 3β (TOP3B), endogenous (human (endogenous in HEK293 and HCT116)); assay: co-IP; TOP3B pulled down from chromatin fractions isolated from HEK293 cells, Western blot
[3] = target: T1, Topoisomerase 3β (TOP3B), endogenous (human (endogenous in HEK293 and HCT116)); assay: co-IP; endogenous proteins precipitated with antibody (USP9X, TOP3B, MIB1 or TDRD3; 3 ug/tube) and Protein A/G magnetic beads from HEK293 or HCT116 lysate in IP lysis buffer with benzonase (total cellular TOP3B), beads washed with RIPA buffer, Western blot; some samples siTDRD3-transfected with MG132

B1: TRIM41, endogenous (enzyme, UniProt Q8WV44 1-630)
chain: MAAVAMTPNPVQTLQEEAVCAICLDYFTDPVSIGCGHNFCRVCVTQLWGGEDEEDRDELDREEEEEDGEEEEVEAVGAGAGWDTPMRDEDYEGDMEEEVEEEEEGVFWTSGMSRSSWDNMDYVWEEEDEEEDLDYYLGDMEEEDLRGEDEEDEEEVLEEVEEEDLDPVTPLPPPPAPRRCFTCPQCRKSFPRRSFRPNLQLANMVQVIRQMHPTPGRGSRVTDQGICPKHQEALKLFCEVDEEAICVVCRESRSHKQHSVVPLEEVVQEYKAKLQGHVEPLRKHLEAVQKMKAKEERRVTELKSQMKSELAAVASEFGRLTRFLAEEQAGLERRLREMHEAQLGRAGAAASRLAEQAAQLSRLLAEAQERSQQGGLRLLQDIKETFNRCEEVQLQPPEVWSPDPCQPHSHDFLTDAIVRKMSRMFCQAARVDLTLDPDTAHPALMLSPDRRGVRLAERRQEVADHPKRFSADCCVLGAQGFRSGRHYWEVEVGGRRGWAVGAARESTHHKEKVGPGGSSVGSGDASSSRHHHRRRRLHLPQQPLLQREVWCVGTNGKRYQAQSSTEQTLLSPSEKPRRFGVYLDYEAGRLGFYNAETLAHVHTFSAAFLGERVFPFFRVLSKGTRIKLCP
binding [1]: no binding | binding [2]: binds | binding [3]: binds
